Article PMC9346113, “Therapeutic impact of BET inhibitor BI 894999 treatment: backtranslation from the clinic” (British Journal of Cancer, 2022)

Tested on: T1, BRD4-NUT
T1 construct: endogenous in cells; host or cells: Ty-82 NUT carcinoma cells
Experiment: Immunofluorescence staining of NUT megadomains, Ty-82
Assay type: cell-based, human
Conditions: 30 min treatment
Method: Cells were seeded on four-well chamber slides (Merck Millipore, #PEZGS0416). After treatment, cells were fixed with 4% PFA (16% Solution, Thermo Fischer #28908 Paraformaldehyde, diluted 1:4 in PBS), permeabilised with 0,1% TX-100 (Sigma #93443, diluted in PBS). After blocking in blocking buffer (10% normal goat serum, Sigma #G9023–10ml, diluted in blocking solution: 2% BSA/PBS, Sigma #A7284–50ml, diluted 1:15 in PBS), the first antibody mAB rabbit anti-NUT 1:1000 (clone C52B1, Cell Signaling #3625) in blocking buffer was added, followed by incubation with the 2nd antibody goat anti-rabbit Alexa*488 1:1000 (Thermo Fisher, #A-11008) in blocking buffer in the dark. Cells were mounted with ProLong Gold Antifade Mountant with DAPI (Thermo Fisher, #P36931) and analysed using a Laser scanning microscope (LSM700).
[…] Upper row: antibody against NUT, lower row: DAPI.
Immunofluorescence staining of NUT megadomains on NC Ty-82 treated with BI with BI 894999 30nM for 1 h, then changed to 10 nM or 5 nM or 2.5 nM or control for 24 h.

With CCNC(=O)C[C@@H]1N=C(c2ccc(Cl)cc2)c2cc(OC)ccc2-n2c(C)nnc21 [GSK525762] the “concentration at which BRD4-NUT detaches from chromatin / is re-distributed” value was 1000 nM.
